From patent publication US7691429B2, “Nutritional supplements containing methylselenocysteine” (iBio, Inc., priority 1998, dated 2010)

What was measured:
[1] = system: B. juncea; assay: Hydroponic growth: metal uptake into B. juncea shoots (ICP); format: in vivo, Brassica juncea; settings: dry weight
[2] = system: B. juncea; assay: Potting mix: metal uptake into B. juncea plants; format: in vivo, Brassica juncea; settings: metal at 5 g/L in tray water, equimolar citric acid, harvested after 1 week
[3] = metal 0.5 g/L, citric acid equimolar to metal
[4] = metal 2 g/L, citric acid equimolar to metal
[5] = metal 10 g/L, citric acid equimolar to metal, harvested 1 week after treatment
[6] = metal 10 g/L, no citric acid, harvested 1 week after treatment
[7] = metal 0.1 g/L, citric acid equimolar to metal

SMILES	metal content of plant shoots [1, 3]	metal content of plant shoots ([1]; metal 0.5 g/L, no citric acid)	metal content of plant shoots [1, 4]	metal content of plant shoots ([1]; metal 2 g/L, no citric acid)	metal content of plant shoots [1, 5]	metal content of plant shoots [1, 6]	Fe in plant tissue [2]	metal content of plant shoots [1, 7]	metal content of plant shoots ([1]; metal 0.1 g/L, no citric acid)	metal content of plant shoots ([1]; metal 1.0 g/L, citric acid equimolar to metal)	metal content of plant shoots ([1]; metal 1.0 g/L, no citric acid)	Cr in plant tissue [2]
O=S(=O)([O-])[O-].[Zn+2] [Zn, ZnSO4]	2626 mg/kg	2529 mg/kg	20493 mg/kg	3854 mg/kg	34657 mg/kg	41167 mg/kg	663 mg/kg					
O=S(=O)([O-])[O-].[Fe+2] [Fe, FeSO4]	252 mg/kg	132 mg/kg	4293 mg/kg	950 mg/kg	15545 mg/kg	27707 mg/kg	29,900 mg/kg					
O=S(=O)([O-])[O-].[Mn+2] [Mn, MnSO4]	950 mg/kg	4090 mg/kg	7881 mg/kg	3557 mg/kg	15782 mg/kg	8531 mg/kg						
[Cl][Cr]([Cl])[Cl] [Cr, CrCl3]							357 mg/kg	0 mg/kg	0 mg/kg	4700 mg/kg	715 mg/kg	50,900 mg/kg
O=[Se](=O)([O-])[O-].[Na+].[Na+] [Se, Na2SeO4]								537 mg/kg	754 mg/kg			
